In experiment [1] the target is T1, NFATC1 pulled down from control, MALAT1-knockout and Malat1-restored HEK293T cells (UniProt O88942).
T1 sequence: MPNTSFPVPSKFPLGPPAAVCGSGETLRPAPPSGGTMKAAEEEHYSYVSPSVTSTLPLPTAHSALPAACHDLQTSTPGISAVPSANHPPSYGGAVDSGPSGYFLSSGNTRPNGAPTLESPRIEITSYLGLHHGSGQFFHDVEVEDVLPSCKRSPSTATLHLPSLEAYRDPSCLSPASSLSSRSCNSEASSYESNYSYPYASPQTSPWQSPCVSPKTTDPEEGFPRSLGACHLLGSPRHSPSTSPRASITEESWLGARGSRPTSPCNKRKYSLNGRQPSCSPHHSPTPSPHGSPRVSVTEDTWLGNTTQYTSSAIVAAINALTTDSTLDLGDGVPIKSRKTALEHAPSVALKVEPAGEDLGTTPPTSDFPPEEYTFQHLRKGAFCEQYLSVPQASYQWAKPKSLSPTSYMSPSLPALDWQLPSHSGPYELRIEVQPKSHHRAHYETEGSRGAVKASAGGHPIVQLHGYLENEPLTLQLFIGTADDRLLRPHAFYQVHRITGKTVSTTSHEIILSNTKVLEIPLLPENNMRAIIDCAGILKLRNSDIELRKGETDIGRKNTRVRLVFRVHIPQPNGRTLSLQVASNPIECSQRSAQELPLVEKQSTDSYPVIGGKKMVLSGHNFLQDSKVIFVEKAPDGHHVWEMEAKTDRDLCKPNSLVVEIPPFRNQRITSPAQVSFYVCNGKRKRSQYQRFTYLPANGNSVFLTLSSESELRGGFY
The experiment in a line: co-IP; NFATC1 pulled down from control, MALAT1-knockout and Malat1-restored HEK293T cells; blots with antibodies against FOS, JUN and CREB1.

The chains behind the UniProt entries cited, without tags or fusion partners.
UniProt P16220: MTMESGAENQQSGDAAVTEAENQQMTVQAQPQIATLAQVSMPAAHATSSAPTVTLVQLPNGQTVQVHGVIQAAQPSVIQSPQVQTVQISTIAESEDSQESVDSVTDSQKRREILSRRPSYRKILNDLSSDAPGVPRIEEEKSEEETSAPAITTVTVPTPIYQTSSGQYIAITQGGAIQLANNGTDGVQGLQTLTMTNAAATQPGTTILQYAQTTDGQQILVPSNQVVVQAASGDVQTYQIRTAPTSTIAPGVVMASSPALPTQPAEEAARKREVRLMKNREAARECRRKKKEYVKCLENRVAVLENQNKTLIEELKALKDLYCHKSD
UniProt P01100: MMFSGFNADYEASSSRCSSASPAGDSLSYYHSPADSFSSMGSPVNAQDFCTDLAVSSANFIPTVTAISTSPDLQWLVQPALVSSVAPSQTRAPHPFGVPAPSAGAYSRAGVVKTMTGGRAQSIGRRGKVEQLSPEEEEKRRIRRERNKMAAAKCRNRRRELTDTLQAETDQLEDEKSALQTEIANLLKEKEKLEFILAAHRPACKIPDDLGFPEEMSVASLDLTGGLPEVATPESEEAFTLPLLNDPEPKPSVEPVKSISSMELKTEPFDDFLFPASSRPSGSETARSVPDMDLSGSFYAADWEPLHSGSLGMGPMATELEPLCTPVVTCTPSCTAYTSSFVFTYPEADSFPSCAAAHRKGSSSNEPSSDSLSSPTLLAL
UniProt P05412: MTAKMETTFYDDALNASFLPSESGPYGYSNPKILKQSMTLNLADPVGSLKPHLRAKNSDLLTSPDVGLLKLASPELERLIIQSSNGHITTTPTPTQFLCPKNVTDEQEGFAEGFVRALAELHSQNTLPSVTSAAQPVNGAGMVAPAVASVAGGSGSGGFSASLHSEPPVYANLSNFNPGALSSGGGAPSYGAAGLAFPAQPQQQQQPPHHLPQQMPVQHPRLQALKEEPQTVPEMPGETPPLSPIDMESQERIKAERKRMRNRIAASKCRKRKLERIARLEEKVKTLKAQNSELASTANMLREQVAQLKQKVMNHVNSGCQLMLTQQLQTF
UniProt P70210: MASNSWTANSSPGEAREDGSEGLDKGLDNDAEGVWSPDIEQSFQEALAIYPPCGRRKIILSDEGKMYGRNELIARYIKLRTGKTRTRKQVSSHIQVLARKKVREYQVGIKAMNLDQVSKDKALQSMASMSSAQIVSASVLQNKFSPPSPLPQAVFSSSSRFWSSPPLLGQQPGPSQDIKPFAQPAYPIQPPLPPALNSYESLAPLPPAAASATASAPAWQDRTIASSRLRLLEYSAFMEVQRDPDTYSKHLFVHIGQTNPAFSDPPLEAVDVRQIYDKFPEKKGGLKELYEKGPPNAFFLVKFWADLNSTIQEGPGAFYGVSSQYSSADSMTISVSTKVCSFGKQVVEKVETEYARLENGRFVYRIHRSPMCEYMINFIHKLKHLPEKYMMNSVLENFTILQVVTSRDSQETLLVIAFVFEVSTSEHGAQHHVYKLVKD

For experiment [2], the target named is T2, SFB-tagged mouse Nfatc1, full-length (mouse) (UniProt O88942).
T2 sequence: T1 sequence
Nature of the experiment: co-IP; HEK293T cells (also MALAT1-knockout and Malat1-restored HEK293T) co-transfected with SFB-Nfatc1 and MYC-Tead3; RIPA lysis, sonication; precipitated with S-protein beads or anti-MYC beads at 4 °C overnight; blots for MYC and FLAG.

No constants are given. Whether binding was seen depends on the method and setting. In cells and extracts the contact can be indirect. Some results given as binding are weak or reduced against the parent protein; the word gives no strength. For some of these results: Sequences can lack the tags named with a protein.

For the substance CREB1 (from UniProt P16220 1-327), in experiment [1], the binding entry is given as “binds”. As to FOS (from UniProt P01100 1-380), the binding result in experiment [1] is on record as “no binding”.

As for JUN (from UniProt P05412 1-331), the binding result in experiment [1] is given as “binds”.

As to “MYC-tagged mouse Tead3, full-length (from UniProt P70210 1-439)”, the binding result in experiment [2] is reported as “binds”.

The values above are taken from paper PMC10944492.
